Results are given in words; binding and its absence hold for the method and conditions named. In cells and extracts the contact can be indirect. Some binding calls cover weakened binding; strength is not graded here.
Target: T1, sirtuin 1 (Sirt-1) (rat (endogenous in NRK-52E))
T1 sequence: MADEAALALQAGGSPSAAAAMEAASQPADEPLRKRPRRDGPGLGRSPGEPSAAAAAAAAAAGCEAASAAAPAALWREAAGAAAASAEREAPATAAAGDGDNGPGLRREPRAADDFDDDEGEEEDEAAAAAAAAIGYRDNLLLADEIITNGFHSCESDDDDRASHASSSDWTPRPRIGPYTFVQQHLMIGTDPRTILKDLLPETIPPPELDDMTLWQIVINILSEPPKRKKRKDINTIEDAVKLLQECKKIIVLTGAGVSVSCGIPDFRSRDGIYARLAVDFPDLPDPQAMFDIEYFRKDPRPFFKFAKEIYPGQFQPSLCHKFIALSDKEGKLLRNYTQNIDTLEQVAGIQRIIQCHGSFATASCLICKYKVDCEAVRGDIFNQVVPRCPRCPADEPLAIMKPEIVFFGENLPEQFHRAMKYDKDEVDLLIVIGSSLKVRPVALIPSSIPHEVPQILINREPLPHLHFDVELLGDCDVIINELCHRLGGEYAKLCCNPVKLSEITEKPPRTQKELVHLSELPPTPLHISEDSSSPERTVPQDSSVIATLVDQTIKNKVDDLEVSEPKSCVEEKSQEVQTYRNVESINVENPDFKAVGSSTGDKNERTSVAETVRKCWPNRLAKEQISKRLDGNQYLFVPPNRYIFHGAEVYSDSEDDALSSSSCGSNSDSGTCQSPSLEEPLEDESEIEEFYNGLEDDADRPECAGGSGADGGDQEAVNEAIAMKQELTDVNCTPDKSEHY
Assay: co-IP; anti-Sirt-1 or anti-HMGB1 antibody, 24 h at 4 °C, protein A magnetic beads, Western blot; endogenous proteins in the nucleus of NRK-52E cells; cells untreated or treated with AGE (100 μg/mL), fucoidan (100 μg/mL), EX527 (200 nM)

The chains behind the UniProt entries cited, without tags or fusion partners.
UniProt P63159: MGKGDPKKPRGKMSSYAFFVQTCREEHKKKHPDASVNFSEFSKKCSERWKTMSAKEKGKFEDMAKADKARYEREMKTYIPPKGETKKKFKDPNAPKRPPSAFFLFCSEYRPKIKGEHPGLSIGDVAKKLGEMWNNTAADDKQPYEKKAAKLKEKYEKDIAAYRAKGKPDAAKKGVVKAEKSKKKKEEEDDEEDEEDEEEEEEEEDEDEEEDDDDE

With “high mobility group box 1 (HMGB1) (from UniProt P63159 1-215)” the binding was “binds”.

— paper PMC7650749
